From paper PMC11592518

T1: Myc-tagged EhDUF2419 (Entamoeba histolytica) (UniProt C4LXA2)
T1 sequence: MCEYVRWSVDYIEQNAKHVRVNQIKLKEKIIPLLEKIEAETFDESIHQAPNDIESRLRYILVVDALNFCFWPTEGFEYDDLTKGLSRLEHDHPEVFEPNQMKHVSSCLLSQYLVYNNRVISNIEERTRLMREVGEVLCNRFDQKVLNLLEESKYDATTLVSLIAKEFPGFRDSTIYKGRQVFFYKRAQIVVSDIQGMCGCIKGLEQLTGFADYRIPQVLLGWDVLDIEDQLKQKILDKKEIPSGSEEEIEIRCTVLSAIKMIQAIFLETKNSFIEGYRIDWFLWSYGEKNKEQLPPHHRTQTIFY

B1: eukaryotic translation initiation factor 3 30 kDa subunit (protein, UniProt C4LUV3 1-213)
chain: MSWEDFDIAEEPDFGETTSTLAALAPETKEETKIVSNKELKEAKKNNVKVAEEYVDPTEGMTEEEKALALRRQQEESDIKGAERLYQGVDDLHELDTMSVITDKDFQKYGKLLGLKGHSLYKEKSKQYKLLVKECMRELTNDLTSVEIKELSAYMEVLFNQQVQIEKEADKKKKKGGKKNLAKPATTGKKYTERVEDQLEDDYYDDEDDYDFM
B2: eukaryotic translation initiation factor 4 gamma (protein, UniProt C4LTB2 1-437)
chain: MSRLNRGGKIASLIDRYENNDKKKQEDARIVAEVRASPRKAAEAKAKEEAEAKKIQEENEKKILEEARIKEEAEAKAKEEAEAKAKEEAEAKAKEEAEAKAKEEAEAKAKEEAEAKAKEEAEAKAKEEAEAKAKEEAEAKAKEEAEAKAKEEAEAKAKEEAEAKAKEEAEAKAKEEAEAKAKEEAEAKAKEEAEAKAKEEAEAKAKEEAEAKAKEEAEKKAKEEVKEENKEEVKEEVKEEVKEEVKEENKEENKEENKEENKEENKEENKEENKEESEVQDTTPSERVMSKGEKKARKALEKVGLVEVPNVIEFSLKRAGSKFVINQPAVYKLPSSEHYVVYGEPRNEYMDEKTKRILEQLQANMKEQQNTTEEKKEEQVNESSAPATTEAVEDDGYVPVEADVNVLMSQANTTHEKAYAALKKTKGDLVSAFFEFQ
B3: eukaryotic peptide chain release factor subunit 1 (protein, UniProt C4LSV8 1-468)
chain: MAVLNKAIKVKGDEMNEEEAIKLFQTKRLIKNIEQARGDGTSMITLIMKPMEQISKMMQKLVEEYGTATNIKSRVNRQSVLTAITSTQNRLKLYHVVPPNGLIIYCGSVYTEKGEKLLCIDFEPPKPINTSTYLCDNRFHTEALNDLLQNDDKYGFIIMDGNGTLFGTLQGNTRTVLQKISVELPKKHGRGGQSSVRFARLRLEKRHNYVRQVGELAVQNFITDDRPNVCGLILAGIADFKTVLNKSMLFDQRLQAIVLNIVDVSYGGMNGFNQAIELSAETLRNVKFVAEKDLINSFMDNIKMDTGKFVFGVQETLKALEMGAVEKLIVWENLPTIRIELKHPQTDERKVLYLKKESEAAENGVIKDPETGVDFQLVESESFVDWLSKHYKEFGAHLEFVTDKSQEGAQFAKGFGGIGGILRYQLSMDELDDNFNMNEEFEHEEEDDDDIFGDEADHFQEFDDEFGL
B4: E3 ubiquitin-protein ligase listerin (enzyme, UniProt C4M9T6 1-1407)
chain: MISASSVLNDETLFLLKKFQKSNETTIIKTLDELKRNILLEPFISTKKEQQAFSLHFSNIFTTLSTHKSSNVRLNLFICLSDGILQSPQGKNMISFCISEIIPWWLLCCHDSVKEISEAAKKALNILSFEGRQKVITSNISQILRLVSSNEYDLISRMGCLATILPNINISKLSSYGKSHLENSIKSLIESYGSITNEVYFSSIDAALITCNFIVMERFESLKNIIVKTIDELQPFSKYSKQLFLCITSLLENGAIFNEEFYNKIIQYISTACLGSLYVFPTLKRLLPFIKEKELEKKYIEGVFKAIGDSHIRGPQRAVVILHYFESIKYFKYTNINELIEIMKLLLNDPGSIMIDSGYSSMGIFLTKLNETKEIQGVLSSAVTYLRRSEEKEYLIHLNCMKFIVDKCIKNEFTQGFSYDLLKTIIDKNENDHFFNDNEIDLIIFILQKYPATEEVHQMIVRQFQHIFMLSIEENINEFDIINDTVEINDEFLSYVIKMEDLLIQSISFEPSTSIGYLLNQMFFNLFPKHYALNHLNYLRLFINKLKEQQFIQTIVLQINPLIQLLLHSFKSSKDIVQSIISISPRLLTPQQLTELLFTNSINHLQVLLNVDLINYLIKSTINSKELLLHIIKSITSPDIFLPIHQPIRNVLLKLLPSLISYIGIEPIHEMLKSLLLSPNCTSFCISLTSEIPPLRNLLINDIKLLLPLSSFISLIPSYAQNIKSPLLIPMPFINSSEYPHYNNTLSLLVKLYHLNNEEIKEDNEYIEYWLFDSYQKLTNRISVEIPHLQQLILLQYLFKKNEIEQYLIFHIINQLSSWINLSKESIEYLAHLFDSSTSYSIRFFLSTYLSPLHIDWLEKKVNIIIKKFFMVNTQSDPQGLKELSILYPLIFFPTHLKMVFKYIFSLEITSELELPFLHILHYVFSSSCSLCFESLENEESLSLIYQFLLKILTSSVSSNLMKRGALQVSQILITHSLPPKLLTSESEGIQLSFKISLIDFIVNSIINKSNTQLISELLLQTDLLAEIDFMSDSMRKYIPELFKILKGKDSIIVKICTGYLIGASMNFKSDETFIDFDDNEQQKYHPLPPSLEEYLDKAIESFSQFNTLNKTTLIIFILGMLRKIKDSSTEYRSWIVAYLQAHHFELFINNLYTLLPDQHVPLTLSSVLSLLHSFINGEDEDENQLLTKQNENQILNILASYCMFVIVQSFPNVVRQWCLSLRKSAPKMVKKFFERNICPFILQEEVQKILSWKETDDFILRLQLDGKAVTVVYKNDELVFESQLIFPSTYPLDMITVNVASNKVSVSEAKSHLYKRMLTMNLMTRDLGIIDACLLWKQQLDRQFDNSDACPICYSLFYLRTTTIPNVACKCCRKKFHKQCIFGWFRSTGRHDCPLCTRNFYGENKN
B5: elongation factor 2 (protein, UniProt C4LWB7 1-880)
chain: MTILPSKVILKLQQNAANVRNICVLAHVDHGKTSICDALIASNGIISKKLSGKVRYLDYRDDEQVRQITMKTSSISLYTQLGDQHHLLNLVDSPGHVDFSGEVSSAVRLTDGALLVVDCIEGVCVQTQTVLRQAASEGLQMILIINKIDRLVFEKNFSIEEATDHLEQLVNSVNNATAVITDDNGTVFGDDYFDPIKGNVVFASAIDGWGFDLVAISEIYAKKFGMKEESLRNILWGEHFINMKTGKTFKTQIDGTMKVFSQLALKPIWDIYNTVHQYFDNKTKEAAKQRIIKISTALGMNIGAREFAIHEEKSFLFSMMNNFVPIAKTILRCAVLHLPSPLEAQPKRINKIYSTHTSLLKDTVVHCDASSPECVLYAAKIFPFGEQMIALCRVLGGTVRRGQELFILPSKYDPTISNAADKIHSFKANQIYLLMGQTTQDMDEVPAGNILGIQVTGVNMFNAATLSSTLQCSPLAPLVSSGAKPVLRVAIEPVHSEDMKALIDGLNLLALSDPSVITTIQDSGENLLLTTGELHLERCMKDLKELFARVPFTYTDPIVSYRETILGQSGAAEESTADESVSFKVHCLAMKEETIDKINDISTMLRMSSRNHQTDEHLNQKIETILEGENNEWKNKLICFGPKRCGPNILINLSDENLPLWPQDKDIKNYTSLVTNAIISGFQLATSAGPLCDEPMEGLIFIIDEILIDEETRSGNIQGQVITAFKDACLAAFQLGRQRIKEPMYLCDIRCPTECIGKVFQVLDKRRAKTLEEGYDETQLMNIIKAQLPVAESFGFTDDMLGQTSGAAFTQTQFDRFVTIPIDPFWVPTTEEELEEYGEKADIKNIAKIAIDNTRKRKGLVLDEKIVEFVDKQSTRSKKK
B6: glycylpeptide N-tetradecanoyltransferase (enzyme, UniProt C4LX52 1-451)
chain: MPHQQGKGKKTTKKSKKITKKEETEEEKIIELKPKELVKEEEKSEFLQAIKKEEDGKTIGDIDNDHKFWKYEPVTGTGVIVPQKYNNPIQPDIPIEKVPKVPAPLPNENMEYCIVNIDNEKEMEEVYILLKENYVEDDDATLRFDYQKEFIKWCLKVPGYYPSWFVGIRQKDSHELIGFITGVPSSIKIYDRIVDVAEINFLCVRKDMRKFKLAPQLIKEVTRQVHLTGLFQAVYTSGTELPNVVCTTQYFHRPLNPKKLDAIGFSTCNQRLTLQRALKLYKLPEQPNSIGFRQMEEKDVDIVTEKLNRFLHTHYDLTVLFSKEMVAHTFLSRDGIIKSYVLEQNGVIKAFGAFYILPSSILNSYEYSELYIAYQYYYFYDKDVDFKQFFKDILICAVQNHCDVFNCLNISENQQYLADLLFVPGDGYLKYYLYNWACPKVEPNKLAIILQ

Target: T1, Myc-tagged EhDUF2419 (Entamoeba histolytica)
Experiment: affinity purification with mass spectrometry; anti-c-Myc agarose beads with whole-cell lysate (1 to 2 mg/mL) of MycEhDUF2419-overexpressing trophozoites (24 ug/mL G418), 2 h at 4 °C, six low-stringency washes (0.1% Tween 20, 0.1% NP-40); LC-MS/MS after in-gel trypsin digestion; three replicates compared with empty vector trophozoites (fold change > 2, p < 0.05)

binding, binds:
B1, B2, B3, B4, B5, B6

These are yes or no findings as the source states them, for the method shown. Binding seen in cells or lysates may run through a third protein. These calls come from enrichment with a bait or labelling near it, and not all partners need be listed. Sequences can lack the tags named with a protein.
